Results: publication PMC12386978
Where a chain is given by its changes, count along the chain named. These are yes or no findings as the source states them, for the method shown. Binding seen in cells or lysates may run through a third protein. Some entries that bind do so weakly or less than the wild type. Where a sequence is shown, tags or fusion partners need not be part of it.

Assays:
[1] = target: T1, NLuc-mCRY1 (wild-type) (mouse (printed as mCRY1)) (UniProt P97784); assay: split reporter; split-luciferase complementation; HEK293T cells co-transfected with NLuc-mCRY1 (wild-type or mutant) and a CLuc fusion of the partner; bioluminescence read 24 h after transfection in DMEM with 100 uM D-luciferin
T1 sequence: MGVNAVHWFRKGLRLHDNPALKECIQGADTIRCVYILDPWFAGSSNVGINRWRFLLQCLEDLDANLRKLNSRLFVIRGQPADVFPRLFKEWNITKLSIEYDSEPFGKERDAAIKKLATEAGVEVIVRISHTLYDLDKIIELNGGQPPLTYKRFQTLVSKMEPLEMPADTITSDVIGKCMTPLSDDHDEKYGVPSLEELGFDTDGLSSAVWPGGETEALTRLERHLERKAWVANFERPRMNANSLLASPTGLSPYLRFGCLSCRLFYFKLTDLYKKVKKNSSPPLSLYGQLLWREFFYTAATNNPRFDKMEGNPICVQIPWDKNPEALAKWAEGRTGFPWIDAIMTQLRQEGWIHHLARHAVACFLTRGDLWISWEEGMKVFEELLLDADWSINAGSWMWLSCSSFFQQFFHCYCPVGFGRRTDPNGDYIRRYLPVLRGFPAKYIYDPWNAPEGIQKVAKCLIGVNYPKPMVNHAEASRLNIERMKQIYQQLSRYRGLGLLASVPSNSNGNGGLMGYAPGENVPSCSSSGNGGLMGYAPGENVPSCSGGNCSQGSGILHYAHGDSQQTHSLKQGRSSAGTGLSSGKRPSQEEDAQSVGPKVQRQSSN

[2] = target: T2, NLuc-mCRY1 K151Q (mouse (printed as mCRY1)) (UniProt P97784); assay: as above
T2 sequence: T1 sequence with K151Q

[3] = target: T3, NLuc-mCRY1 K151R (mouse (printed as mCRY1)) (UniProt P97784); assay: as above
T3 sequence: T1 sequence with K151R

[4] = target: T4, FLAG-CRY1 (WT) (mouse (printed as mCRY1)) (UniProt P97784); assay: co-IP; HEK293T co-transfected with FLAG-CRY1 and HA-FBXL21 or HA-BMAL1; 20 uM MG132 for 6 h before harvest; lysis in 25 mM Tris-HCl pH 7.6, 150 mM NaCl, 1% NP-40, 0.5 mM EDTA; anti-FLAG antibody overnight at 4 C, protein A/G magnetic beads; blots with anti-HA and anti-FLAG
T4 sequence: T1 sequence

[5] = target: T5, FLAG-CRY1 K151Q (mouse (printed as mCRY1)) (UniProt P97784); assay: as above
T5 sequence: T1 sequence with K151Q

[6] = target: T6, FLAG-CRY1 K151R (mouse (printed as mCRY1)) (UniProt P97784); assay: as above
T6 sequence: T1 sequence with K151R

Measured: binding

B1: CLuc-FBXL3 (protein, UniProt Q8C4V4 1-428)
chain: MKRGGRDSDQDSAEEGTAEKPKRPRTTQERSQPCDWGNLLQDIVLHVFKYLPLLDRAHASQVCRNWNQVFHMPDLWRCFEFELNQPATSYLKATHPELIKQIIKRHSNHLQYVSFKVDSSKESAEAACDILSQLVNCSLKTLGLISTARPSFMDLPKSHFISALTVVFVNSKSLSSLKIDDTPVDDPSLKVLVANNSDTLKLLKMSSCPHVSPAGILCVADQCHGLRELALNYHLLSDELLLALSSEKHVRLEHLRIDVVSENPGQTHFHTIQKSSWDAFIKHSPKVNLVMYFFLYEEEFDPFFRYEIPATHLYFGRSVSKDVLGRVGMTCPRLVELVVCANGLRPLDEELIRIAERCKNLSAIGLGECEVSCSAFVEFVKMCGGRLSQLSIMEEVLIPDQKYSLEQIHWEVSKHLGRVWFPDMMPTW
binds: [1] | [2] | [3]

B2: CLuc-FBXL21 (protein, UniProt Q8BFZ4 1-434)
chain: MKRNNFSAVNKVVQSSPVVKQPKRGLCSSLRQTHALSVLLDWGTLPHHVILQIFQYLPLIDRARASSVCRRWNEVFHIPDLWRKFEFELNQSATSYFKSTHPDLIQQIIKKHAAHLQYVSFKVDSSTESAEAACDILSQLVNCSIQTLGLISTAKPSFMNVPKSHFVSALTVVFVNSKSLSSIKIEDTPVDDPSLKILVANNSDTLRLLKMSSCPHVSSDGILCVADHCQGLRELALNYYILSDEILLALSSETHVNLEHLRIDVVSENPGQIKFHSIKKRSWDALIKHSPRVNVVMYFFLYEEEFEAFFKEETPVTHLYFGRSVSRAILGRIGLNCPRLIELVVCANGLLPLDSELIRIAKHCKNLTSLGLSECEVSCSAFVEFVRLCGRRLTQLSIMEEVLVPDDRYTPDEVHTEVSKHLGRVWFPDVMPIW
binds: [1] | [2] | [3]

B3: HA-FBXL21 (protein, UniProt Q8BFZ4 1-434)
chain: B2 chain
binds: [4] | [5] | [6]
